# PubChem BioAssay AID493246, Drosophila RNAi Screening Center, 2011
# Screen: 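Genome-wide search for dsRNAs that reduce cell number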 (primary screen)
# Cell system: Drosophila Kc and S2R+ cells
# Reagents: long dsRNA against Drosophila genes
# Read-out: 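Raw, unnormalised count of remaining cells in each well; per-plate z-scores of cell number underlie the calls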
# Direction: Kc cell number and S2R+ cell number: higher = more cells remaining
# Hit rule: 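Counted as a hit if cell number falls by a z-score of at least 3 within its plate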
# The screen tested about 21,000 reagents; below is a random part of those with a known target gene and a result. Of all reagents, 429 (2%) are marked active. 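Values are raw and not normalised between plates; calls rest on per-plate z-scores that were not deposited.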 Entries without a mark were called inactive. A plus sign joins genes that one reagent is predicted to hit. Not given: the amount of reagent, the time to read-out.
target,DRSC id,"Kc cell number, rep 1","Kc cell number, rep 2","S2R+ cell number, rep 1","S2R+ cell number, rep 2"
MED19,DRSC10516,1.33e6,1.48e6,9.59e5,9.98e5
CG2604,DRSC12313,1.66e6,1.78e6,1.30e6,1.40e6
mRpL30,DRSC18416,1.51e6,1.55e6,9.56e5,1.08e6
AOX4,DRSC15337,1.37e6,1.42e6,1.10e6,1.17e6
JTBR,DRSC08667,1.22e6,1.41e6,1.14e6,1.26e6
Hacl,DRSC06061,1.65e6,1.57e6,1.13e6,1.09e6
ATP8B,DRSC14961,1.58e6,1.52e6,1.26e6,1.31e6
Apt1,DRSC10348,1.51e6,1.51e6,1.17e6,1.30e6
CG42505 + CG42504 + CG31358,DRSC15235,1.51e6,1.52e6,1.25e6,1.30e6
CG42505 + CG42504 + CG31358,DRSC15309,1.87e6,1.92e6,1.48e6,1.56e6
Lcp2,DRSC07456,1.62e6,1.72e6,1.27e6,1.41e6
stil,DRSC07699,1.39e6,1.38e6,1.19e6,1.29e6
rgn,DRSC11609,1.62e6,1.62e6,1.51e6,1.75e6
krimp,DRSC06578,1.34e6,1.36e6,1.20e6,1.22e6
CG42502 + CG10570,DRSC02071,1.54e6,1.61e6,1.26e6,1.19e6
Mos,DRSC07258,1.74e6,1.79e6,1.40e6,1.58e6
side-VIII,DRSC05880,6.45e5,,8.06e5,
side-VIII,DRSC05883,3.69e5,,6.02e5,
side-VIII,DRSC06157,1.64e6,1.67e6,1.16e6,1.24e6
TAF1B,DRSC16001,1.73e6,1.83e6,1.26e6,1.35e6
Nepl21,DRSC14133,5.63e5,,8.47e5,
wun2,DRSC07566,1.78e6,1.88e6,1.44e6,1.58e6
ArgRS,DRSC20138,1.65e6,1.68e6,1.08e6,1.24e6
CG9864,DRSC07346,1.58e6,1.60e6,1.15e6,1.36e6
CG9286,DRSC16467,1.56e6,1.63e6,1.07e6,1.17e6
uncNacbeta,DRSC00326,1.49e6,1.55e6,1.10e6,1.27e6
CG11307,DRSC11648,1.62e6,1.62e6,1.42e6,1.37e6
JMJD5,DRSC08372,1.50e6,1.16e6,1.10e6,1.36e6
Lamtor2 + CG30120,DRSC05726,5.36e5,,8.00e5,
Lamtor2 + CG30120,DRSC06922,1.54e6,1.61e6,1.17e6,1.30e6
Sec61gamma,DRSC19570,1.42e6,1.50e6,1.13e6,1.24e6
Smn,DRSC10223,1.59e6,1.65e6,1.17e6,1.18e6
CG12517,DRSC02173,1.58e6,1.61e6,1.11e6,1.21e6
Cyp4c3,DRSC16631,5.17e5,,7.70e5,
CG15239,DRSC17972,1.62e6,1.65e6,9.81e5,1.13e6
eIF4E7,DRSC17782,1.55e6,1.60e6,1.10e6,1.20e6
eIF4E7,DRSC18623,1.45e6,1.47e6,1.02e6,1.18e6
yl,DRSC20387,1.52e6,1.51e6,1.03e6,1.09e6
Obp56b,DRSC06551,1.50e6,1.55e6,1.17e6,1.28e6
par-1,DRSC05792,2.38e5 (active),,4.50e5,
par-1,DRSC06098,1.55e6,1.55e6,1.09e6,1.16e6
par-1,DRSC06616,1.46e6,1.56e6,1.05e6,9.58e5
par-1,DRSC07660,1.64e6,1.49e6,9.78e5,1.10e6
par-1,DRSC07661,1.50e6,1.53e6,1.09e6,1.18e6
gt,DRSC18782,1.28e6,1.55e6,7.70e5,8.12e5
CG30195,DRSC04155,1.56e6,1.62e6,1.20e6,1.35e6
olf413,DRSC11543,1.61e6,1.67e6,1.12e6,1.26e6
olf413,DRSC11679,1.42e6,1.38e6,1.00e6,1.20e6
olf413,DRSC11721,1.41e6,1.48e6,1.35e6,1.48e6
olf413,DRSC11833,1.40e6,1.56e6,1.31e6,1.42e6
CG42813 + CG42814,DRSC15939,4.96e5,,8.32e5,
CG42813 + CG42814,DRSC15940,1.43e6,1.45e6,9.74e5,1.09e6
betaTry,DRSC07582,1.39e6,1.68e6,1.03e6,1.13e6
bora,DRSC10744,1.46e6,1.50e6,9.98e5,1.04e6
Xpc,DRSC07654,1.10e6,1.23e6,8.85e5,8.40e5
spi,DRSC03618,1.63e6,1.68e6,1.37e6,4.65e5
CG6484,DRSC06991,1.36e6,1.45e6,1.07e6,1.10e6
CG13707,DRSC08316,1.45e6,1.32e6,1.18e6,1.15e6
CG15728,DRSC19694,1.63e6,1.57e6,1.07e6,1.18e6

7 consecutive entries from above:
target,DRSC id,"Kc cell number, rep 1","Kc cell number, rep 2","S2R+ cell number, rep 1","S2R+ cell number, rep 2"
Nepl21,DRSC14133,5.63e5,,8.47e5,
wun2,DRSC07566,1.78e6,1.88e6,1.44e6,1.58e6
ArgRS,DRSC20138,1.65e6,1.68e6,1.08e6,1.24e6
CG9864,DRSC07346,1.58e6,1.60e6,1.15e6,1.36e6
CG9286,DRSC16467,1.56e6,1.63e6,1.07e6,1.17e6
uncNacbeta,DRSC00326,1.49e6,1.55e6,1.10e6,1.27e6
CG11307,DRSC11648,1.62e6,1.62e6,1.42e6,1.37e6
